This note sets out measurements from patent publication EP4663661A1 (Hainan Simcere Zaiming Pharmaceutical Co., Ltd., dated 2025).

Changes are numbered by the printed parent chain. Results are given in words; binding and its absence hold for the method and conditions named. Some results given as binding are weak or reduced against the parent protein; the word gives no strength. For part of these data: Where a sequence is shown, tags or fusion partners need not be part of it.

In test [1] the target is monkey CDH6 protein (cynoCDH6 ECD-his) (monkey (cyno)). The test can be described thus: ELISA, antigen coated. On the technique in general: In an ELISA, binding on a coated surface is turned into a signal by an enzyme label.
For test [2], the target named is T1, his-tagged human CDH6 extracellular region protein (hCDH6 ECD-his) (human) (UniProt P55285).
T1 sequence: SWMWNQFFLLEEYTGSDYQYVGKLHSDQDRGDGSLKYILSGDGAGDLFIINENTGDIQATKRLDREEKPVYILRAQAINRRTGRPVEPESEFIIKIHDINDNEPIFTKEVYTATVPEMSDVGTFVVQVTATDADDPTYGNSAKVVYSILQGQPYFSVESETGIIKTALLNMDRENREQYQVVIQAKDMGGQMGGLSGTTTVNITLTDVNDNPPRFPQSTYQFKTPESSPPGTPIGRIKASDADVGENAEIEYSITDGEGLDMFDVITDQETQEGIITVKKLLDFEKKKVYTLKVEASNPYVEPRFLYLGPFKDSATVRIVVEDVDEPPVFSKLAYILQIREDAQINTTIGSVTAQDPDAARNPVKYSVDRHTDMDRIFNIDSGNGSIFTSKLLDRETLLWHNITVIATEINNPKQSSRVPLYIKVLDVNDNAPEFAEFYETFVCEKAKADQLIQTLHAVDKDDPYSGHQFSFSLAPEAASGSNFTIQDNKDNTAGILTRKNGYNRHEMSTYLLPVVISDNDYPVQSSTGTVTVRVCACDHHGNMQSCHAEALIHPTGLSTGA
The test can be described thus: ELISA, antigen coated.

B1: CHI-CDH6-7 (antibody, human IgG1, kappa, V domains shown)
VH: EVKLVESGGGLVKPGGSLKVSCAASGFTFSDHGMAWVRQAPGKGPEWVAFISNLAYSIYYADTVTGRFTISRENAKNTLYLEMSSLRSEDTAMYYCARVYVKWYFDVWGAGTTVTVSS
VL: DIQMTQSPASLSASVGETVTITCRASENIDSYLAWYQQKQGKSPQLLVFAATLLADGVPSRFSGSGSGTQYSLKINSLQSEDVARYYCQHYYSTPLTFGAGTKLELKR
Consider B1, for which the binding entry in test [1] was “binds”.

B2: CHI-CDH6-14 (antibody, human IgG1, kappa, V domains shown)
VH: QIQLQQSGPELVKPGTSVKISCKASGYTFTDNYINWVRQRPGQGLEWIGWIYPGTGNSYYNEKFKGKATLTVDTSSSTAYMQFSSLTSEDSAVYLCASSYGDSFDYWGQGTTLTVSS
VL: DIQMTQTTSSLSASLGNRVTISCRASQDIRNYLNWYQQKPDGTFKLLISYTSRLHSGVPSRFSGSGSGTDYSLTVSNLEPEDIATYYCQQYSQLPWTFGGGSRLEIKR
notes: also called CHI- hCDH6-14
Regarding B2, in test [1], the binding entry was “binds”.

B3: CHI-CDH6-4 (antibody, human IgG1, kappa, V domains shown)
VH: QVQLQQSGPELVKPGASVKISCKASGYAFSNFWMNWVKQRPGKGLEWIGWIYPGDGDTNYNGKFKDKATLTADKSSSTAYIQLSSLTSEDSAVYFCARLYDAWGFFDYWGQGTTLTVSS
VL: QIVLTQSPAIMSASPGQKVTITCSASSSVNYMHWYQQKLGSSPKLWIYDKSKLAPGVPARFSGSGSGTSYSLTISSMEAEDAASYFCHQWSSYPPMTFGGGTKLEIKR
Take B3: the binding result in test [1] is given as “binds”.

B4: hCDH6-14-H3L1 (antibody, human IgG1, kappa, V domains shown)
VH: EIQLVQSGAEVKKPGASVKVSCKASGYTFTDNYINWVRQAPGQRLEWMGWIYPGTGNSYYNEKFKGRVTLTVDTSASTAYMELSSLRSEDTAVYYCASSYGDSFDYWGQGTTVTVSS
VL: DIQMTQSPSSLSASVGDRVTITCRASQDIRNYLNWYQQKPGKAFKLLISYTSRLHSGVPSRFSGSGSGTDFTFTISSLQPEDIATYYCQQYSQLPWTFGGGTKVEIKR
As for B4, the binding entry in test [2] was “binds”.

B5: hCDH6-14-H6L2 (antibody, human IgG1, kappa, V domains shown)
VH: B4 VH with I2V, L70I, Y95L
VL: B4 VL with K42G, F44P
Consider B5, for which the binding result in test [2] is reported as “binds”.

B6: hCDH6-14-H4L3 (antibody, human IgG1, kappa, V domains shown)
VH: B4 VH with I2V, R44G, L70I
VL: DIVMTQSPDSLAVSLGERATINCRASQDIRNYLNWYQQKPGQTPKLLISYTSRLHSGVPDRFSGSGSGTDFTLTISSLQAEDVAVYYCQQYSQLPWTFGGGTKVEIKR
On to B6, for which, in test [2], the binding result is “binds”.

B7: hCDH6-14-H6L3 (antibody, human IgG1, kappa, V domains shown)
VH: B4 VH with I2V, L70I, Y95L
VL: B6 VL
B7: the binding entry in test [2] is “binds”.

B8: hCDH6-14-H3L3 (antibody, human IgG1, kappa, V domains shown)
VH: B4 VH
VL: B6 VL
As for B8, the binding result in test [2] is given as “binds”.

B9: hCDH6-14-H4L1 (antibody, human IgG1, kappa, V domains shown)
VH: B4 VH with I2V, R44G, L70I
VL: B4 VL
Take B9: the binding result in test [2] is given as “binds”.

B10: hCDH6-14-H3L2 (antibody, human IgG1, kappa, V domains shown)
VH: B4 VH
VL: B4 VL with K42G, F44P
Consider B10, for which the binding result in test [2] is “binds”.

B11: hCDH6-14-H6L1 (antibody, human IgG1, kappa, V domains shown)
VH: B4 VH with I2V, L70I, Y95L
VL: B4 VL
For the molecule B11, the binding entry in test [2] was “binds”.

B12: hCDH6-14-H4L2 (antibody, human IgG1, kappa, V domains shown)
VH: B4 VH with I2V, R44G, L70I
VL: B4 VL with K42G, F44P
For the molecule B12, the binding entry in test [2] is recorded as “binds”.

B13: CHI-CDH6-12 (antibody, human IgG1, kappa, V domains shown)
VH: EVNLVESGGGLVQPGDSLTLSCSASGFTFTDYYMSWVRQFPGKALEWLALIRNKANSYTTEYSASVKGRFTISRDNSQSILYLQMNALRAEDSATYYCARDSYYSHDGFAYWGQGTLVTVSA
VL: DIVLTQSPASLAVSLGQRATISCRASKSVSTSSYTYMHWYQQKPGQPPKLLIKFASYLESGVPARFSGSGSGTDFTLNIHPVEEEDAATYYCQHSREFPFTFGTGTKLEIKR
B13: the binding entry in test [1] is recorded as “binds”.

B14: hCDH6-6-H3L2 (antibody, human IgG1, kappa, V domains shown)
VH: EVQLVQSGAEVKKPGASVKVSCKASGYTFTDYYMAWVRQAPRQGLEWMGYIFPNSGGTDYSQKFKGRVTMTVDKSTSTVYMELSSLRSEDTAVYYCARELGADYGDYYAMDHWGQGTTVTVSS
VL: DIQMTQSPSSLSASVGDRVTITCRASENIDSYLAWYQQKPGKSPKLLVYSATLLADGVPSRFSGSGSGTDYTLTISSLQPEDFATYYCQHYYRTPPTFGQGTKLEIKR
As to B14, in test [2], the binding result is listed as “binds”.

B15: hCDH6-6-H3L5 (antibody, human IgG1, kappa, V domains shown)
VH: B14 VH
VL: DIVMTQSPLSLPVTPGEPASISCRASENIDSYLAWYLQKPGKSPQLLVYSATLLADGVPDRFSGSGSGTDFTLKISRVEAEDVGVYYCQHYYRTPPTFGQGTKLEIKR
For the molecule B15, the binding result in test [2] is “binds”.

B16: hCDH6-6-H3L4 (antibody, human IgG1, kappa, V domains shown)
VH: B14 VH
VL: B14 VL with T85R
With B16, the binding result in test [2] is “binds”.

B17: hCDH6-6-H3L3 (antibody, human IgG1, kappa, V domains shown)
VH: B14 VH
VL: B14 VL with K45Q
For the molecule B17, the binding result in test [2] was “binds”.

B18: CHI-CDH6-1 (antibody, human IgG1, kappa, V domains shown)
VH: QVQLQQPGAELVRPGSSVKLSCKASGYTFTNYWMHWVKQRPIEGLEWIGDIDPSHSETHYTQKFKDKATLTVDKSSSTAYMQLSSLTSEDSAVYYCARGDLGRFDYWGQGTTLTVSS
VL: DIVLTQSPASLAVSLGQRATISCRASESVSIHGTHLMHWYQQKSGQPPKLLIYAASNLESGVPARFSGSGSETDFTFNIHPVEEEDAATYFCQQSFEDPWTFGGGTKLEIKR
On to B18, for which the binding result in test [2] and in test [1] was “binds” each time.

B19: CHI-CDH6-3 (antibody, human IgG1, kappa, V domains shown)
VH: QVQLQQPGAELVKPGASVKLSCKASGYTFTSYWIHWVKQRPGQGLEWIGEINPSNGVTNCNENFKSKATLTVDKSSSTAYMQLSSLTSEDSAVYYCTIPNLLWWYFDVWGAGTTVTVSS
VL: DIQMTQSPASLSVSVGETVTITCRASENIYSNLAWYQQKQGKSPQLLVYEATNLADGVPSRFSGSGSGTQYSLKINSLQSEDFGSYYCQHFWGTLWTFGGGTKLEIKR
On to B19, for which the binding result in test [1] was “binds”.

B20: CHI-CDH6-5 (antibody, human IgG1, kappa, V domains shown)
VH: QVQLQQSGAELVRPGTSVKMSCKAAEYTFTNYWIGWVKQRPGHGLEWIGDLYPGGDHANYNEKFEGKATLTADTSSSTAYMQLSSLTSEDSAIYYCARGMLTTGFDSWGQGTTLTVSS
VL: DIVMSQSPSSLAVSAGEKVTMSCKSSQSLFNSRTRKNYLAWYQQKPGQSPKLLIYWASTRESGVPDRFTGSGSGTDFTLTISSVQAEDLAVYYCKQSYYLRTFGGGTKLEIKR
As to B20, the binding result in test [1] is given as “binds”.
